The results in this text go back to paper PMC4747350.

Amino acid sequences for entries named in this document (tags omitted). Residues count along the entry.
UniProt P08581, residues 25-1390: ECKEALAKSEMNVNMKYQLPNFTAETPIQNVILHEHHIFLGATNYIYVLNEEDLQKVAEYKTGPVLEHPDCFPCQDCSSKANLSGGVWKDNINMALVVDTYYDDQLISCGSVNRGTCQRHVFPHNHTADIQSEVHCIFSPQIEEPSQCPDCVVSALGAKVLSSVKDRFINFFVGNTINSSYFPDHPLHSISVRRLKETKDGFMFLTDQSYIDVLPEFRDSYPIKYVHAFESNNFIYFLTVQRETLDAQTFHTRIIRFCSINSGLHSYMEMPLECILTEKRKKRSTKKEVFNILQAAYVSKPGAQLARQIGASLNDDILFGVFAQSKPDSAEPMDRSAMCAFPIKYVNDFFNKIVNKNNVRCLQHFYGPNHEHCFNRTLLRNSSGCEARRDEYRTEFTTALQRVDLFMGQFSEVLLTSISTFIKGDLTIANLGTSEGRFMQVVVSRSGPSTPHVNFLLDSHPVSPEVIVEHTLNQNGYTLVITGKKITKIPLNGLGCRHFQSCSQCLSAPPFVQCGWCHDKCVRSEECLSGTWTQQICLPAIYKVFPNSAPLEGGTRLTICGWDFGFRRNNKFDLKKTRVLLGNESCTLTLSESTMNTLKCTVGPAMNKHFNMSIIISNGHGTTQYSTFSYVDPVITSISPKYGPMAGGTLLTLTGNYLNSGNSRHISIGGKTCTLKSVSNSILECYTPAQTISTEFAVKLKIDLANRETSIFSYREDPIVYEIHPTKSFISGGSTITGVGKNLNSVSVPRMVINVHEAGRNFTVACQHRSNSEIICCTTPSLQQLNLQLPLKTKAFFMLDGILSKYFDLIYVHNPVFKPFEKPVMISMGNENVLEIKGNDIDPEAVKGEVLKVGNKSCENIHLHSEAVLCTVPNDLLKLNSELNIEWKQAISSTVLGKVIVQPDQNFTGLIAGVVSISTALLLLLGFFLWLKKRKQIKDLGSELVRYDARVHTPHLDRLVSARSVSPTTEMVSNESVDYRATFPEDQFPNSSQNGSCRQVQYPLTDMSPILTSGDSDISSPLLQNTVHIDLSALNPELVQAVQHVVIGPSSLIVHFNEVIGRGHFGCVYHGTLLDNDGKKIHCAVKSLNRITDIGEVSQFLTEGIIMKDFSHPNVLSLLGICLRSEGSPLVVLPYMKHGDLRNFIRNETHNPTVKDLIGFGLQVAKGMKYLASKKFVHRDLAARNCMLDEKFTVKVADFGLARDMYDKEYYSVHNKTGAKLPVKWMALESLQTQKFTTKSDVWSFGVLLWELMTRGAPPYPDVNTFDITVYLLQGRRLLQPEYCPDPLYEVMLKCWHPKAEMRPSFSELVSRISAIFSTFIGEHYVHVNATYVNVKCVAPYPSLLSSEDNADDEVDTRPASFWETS
UniProt Q04912, residues 25-1400: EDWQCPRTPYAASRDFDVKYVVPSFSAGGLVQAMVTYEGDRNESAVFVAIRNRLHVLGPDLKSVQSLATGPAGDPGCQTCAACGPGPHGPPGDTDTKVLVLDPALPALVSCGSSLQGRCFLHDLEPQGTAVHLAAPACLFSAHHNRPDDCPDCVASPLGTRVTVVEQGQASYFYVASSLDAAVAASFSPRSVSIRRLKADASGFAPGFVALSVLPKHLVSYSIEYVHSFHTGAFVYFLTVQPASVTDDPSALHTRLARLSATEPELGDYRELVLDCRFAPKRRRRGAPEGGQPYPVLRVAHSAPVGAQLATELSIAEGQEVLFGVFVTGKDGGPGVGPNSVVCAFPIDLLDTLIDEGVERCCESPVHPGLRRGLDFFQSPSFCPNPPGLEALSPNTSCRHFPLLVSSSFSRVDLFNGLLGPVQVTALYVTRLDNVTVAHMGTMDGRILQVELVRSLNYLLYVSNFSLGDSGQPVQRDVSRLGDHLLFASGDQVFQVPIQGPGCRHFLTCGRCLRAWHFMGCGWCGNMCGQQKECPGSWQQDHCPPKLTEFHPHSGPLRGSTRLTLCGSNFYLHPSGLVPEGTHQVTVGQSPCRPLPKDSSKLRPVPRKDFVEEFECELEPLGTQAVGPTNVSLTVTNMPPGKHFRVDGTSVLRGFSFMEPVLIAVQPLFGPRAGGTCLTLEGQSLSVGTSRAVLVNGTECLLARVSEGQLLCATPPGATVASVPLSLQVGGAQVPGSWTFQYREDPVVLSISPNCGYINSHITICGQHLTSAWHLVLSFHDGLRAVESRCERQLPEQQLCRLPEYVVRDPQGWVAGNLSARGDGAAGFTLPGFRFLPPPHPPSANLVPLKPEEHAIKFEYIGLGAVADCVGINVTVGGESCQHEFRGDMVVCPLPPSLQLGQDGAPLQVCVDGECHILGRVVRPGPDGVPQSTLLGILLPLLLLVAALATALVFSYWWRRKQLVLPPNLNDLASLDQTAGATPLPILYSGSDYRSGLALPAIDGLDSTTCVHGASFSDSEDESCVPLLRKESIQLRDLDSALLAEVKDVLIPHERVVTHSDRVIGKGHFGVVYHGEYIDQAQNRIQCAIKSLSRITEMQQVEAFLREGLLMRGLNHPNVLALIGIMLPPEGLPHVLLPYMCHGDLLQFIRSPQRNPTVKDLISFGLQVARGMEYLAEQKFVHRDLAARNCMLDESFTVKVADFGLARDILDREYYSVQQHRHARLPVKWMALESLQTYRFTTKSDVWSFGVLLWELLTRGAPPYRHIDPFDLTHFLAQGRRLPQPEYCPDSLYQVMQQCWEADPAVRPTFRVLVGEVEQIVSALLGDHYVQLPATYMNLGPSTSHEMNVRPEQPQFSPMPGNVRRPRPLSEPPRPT

These are yes or no findings as the source states them, for the method shown. In cells and extracts the contact can be indirect. Some entries that bind do so weakly or less than the wild type.

The target in the test is MET (human (endogenous in MKN-45)) (UniProt P08581). In words: co-IP; MKN-45 lysate (0.025 M Tris pH 7.4, 0.15 M NaCl, 0.001 M EDTA, 1% NP40, 5% glycerol); 500 ug total protein immunoprecipitated overnight at 4°C with anti-MET antibody, magnetic beads; immunoblotted for RON; irrelevant IgG as negative control.

Consider “full-length RON (recepteur d'origine nantais) (from UniProt Q04912 25-1400) (receptor)”, for which the binding result is “binds”.
